Source: the supplement of paper PMC5836539
± gives the standard deviation of the averaged measurements. Single values are uncertain here, since repeats match poorly.

By UniProt entry, the sequences of proteins in these tests, tags left out. Where a name states a change or a piece, a line headed by the entry shows the natural chain unless it says otherwise.
UniProt Q9H1E3: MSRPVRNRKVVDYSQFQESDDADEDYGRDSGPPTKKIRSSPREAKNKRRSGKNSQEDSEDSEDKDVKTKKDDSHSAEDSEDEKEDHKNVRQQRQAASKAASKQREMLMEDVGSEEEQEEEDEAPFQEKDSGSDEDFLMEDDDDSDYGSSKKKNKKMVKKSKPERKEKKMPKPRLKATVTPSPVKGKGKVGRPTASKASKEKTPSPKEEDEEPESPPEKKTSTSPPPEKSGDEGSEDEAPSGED
UniProt Q7Z417: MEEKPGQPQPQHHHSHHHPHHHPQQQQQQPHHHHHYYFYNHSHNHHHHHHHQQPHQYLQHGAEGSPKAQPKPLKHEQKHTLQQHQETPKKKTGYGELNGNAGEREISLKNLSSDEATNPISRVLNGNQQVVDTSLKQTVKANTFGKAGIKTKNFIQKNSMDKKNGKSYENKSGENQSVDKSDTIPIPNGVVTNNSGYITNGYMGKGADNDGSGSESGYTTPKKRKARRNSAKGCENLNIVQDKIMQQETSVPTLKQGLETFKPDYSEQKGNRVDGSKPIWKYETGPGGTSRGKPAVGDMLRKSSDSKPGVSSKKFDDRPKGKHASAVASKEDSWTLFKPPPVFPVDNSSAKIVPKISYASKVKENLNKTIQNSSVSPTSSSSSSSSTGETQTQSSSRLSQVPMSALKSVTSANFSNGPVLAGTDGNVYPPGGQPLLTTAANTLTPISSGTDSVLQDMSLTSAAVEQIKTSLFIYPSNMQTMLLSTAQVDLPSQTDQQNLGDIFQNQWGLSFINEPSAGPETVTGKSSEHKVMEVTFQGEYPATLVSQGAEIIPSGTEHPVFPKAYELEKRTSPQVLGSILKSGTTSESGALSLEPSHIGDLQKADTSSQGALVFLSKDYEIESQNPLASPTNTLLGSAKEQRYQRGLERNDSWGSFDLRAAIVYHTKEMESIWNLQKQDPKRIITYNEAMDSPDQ
UniProt Q9UKX7: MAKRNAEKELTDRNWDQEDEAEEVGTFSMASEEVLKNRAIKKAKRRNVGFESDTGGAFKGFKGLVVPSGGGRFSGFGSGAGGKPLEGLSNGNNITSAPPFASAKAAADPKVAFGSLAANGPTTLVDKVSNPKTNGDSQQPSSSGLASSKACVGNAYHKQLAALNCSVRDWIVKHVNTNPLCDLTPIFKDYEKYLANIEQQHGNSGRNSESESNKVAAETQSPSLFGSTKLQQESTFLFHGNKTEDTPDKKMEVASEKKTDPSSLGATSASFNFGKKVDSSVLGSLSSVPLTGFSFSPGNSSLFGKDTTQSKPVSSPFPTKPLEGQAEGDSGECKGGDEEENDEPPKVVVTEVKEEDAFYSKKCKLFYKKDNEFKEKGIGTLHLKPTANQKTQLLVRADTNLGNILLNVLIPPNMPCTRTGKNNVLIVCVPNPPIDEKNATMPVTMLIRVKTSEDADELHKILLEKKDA
UniProt P22059, whole entry, looked up: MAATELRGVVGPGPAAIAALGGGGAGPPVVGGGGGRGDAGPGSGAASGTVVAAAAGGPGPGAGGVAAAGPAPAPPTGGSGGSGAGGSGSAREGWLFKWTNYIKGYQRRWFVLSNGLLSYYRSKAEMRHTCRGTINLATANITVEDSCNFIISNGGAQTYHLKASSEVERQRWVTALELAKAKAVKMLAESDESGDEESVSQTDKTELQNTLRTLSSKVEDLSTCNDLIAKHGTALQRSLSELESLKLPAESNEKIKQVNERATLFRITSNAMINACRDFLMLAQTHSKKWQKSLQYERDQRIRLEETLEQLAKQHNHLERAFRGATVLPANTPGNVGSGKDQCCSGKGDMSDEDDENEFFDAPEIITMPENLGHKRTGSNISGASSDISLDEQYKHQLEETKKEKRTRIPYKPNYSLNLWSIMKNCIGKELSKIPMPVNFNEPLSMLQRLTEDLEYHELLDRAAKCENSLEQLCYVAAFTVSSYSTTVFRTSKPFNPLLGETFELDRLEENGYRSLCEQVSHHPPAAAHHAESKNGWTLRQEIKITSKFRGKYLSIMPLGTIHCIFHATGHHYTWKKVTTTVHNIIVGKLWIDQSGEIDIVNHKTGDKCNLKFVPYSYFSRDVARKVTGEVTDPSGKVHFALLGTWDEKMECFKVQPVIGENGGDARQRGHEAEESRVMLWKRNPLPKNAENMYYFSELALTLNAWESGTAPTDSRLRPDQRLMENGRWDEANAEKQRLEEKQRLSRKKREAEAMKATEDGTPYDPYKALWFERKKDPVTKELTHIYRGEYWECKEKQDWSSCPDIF
UniProt Q92882: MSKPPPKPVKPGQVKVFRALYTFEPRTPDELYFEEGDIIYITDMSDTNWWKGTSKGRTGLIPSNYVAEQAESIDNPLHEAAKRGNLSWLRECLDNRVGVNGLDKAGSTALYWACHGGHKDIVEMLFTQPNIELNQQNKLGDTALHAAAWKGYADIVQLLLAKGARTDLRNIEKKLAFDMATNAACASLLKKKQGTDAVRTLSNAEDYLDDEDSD
UniProt Q9UNF0: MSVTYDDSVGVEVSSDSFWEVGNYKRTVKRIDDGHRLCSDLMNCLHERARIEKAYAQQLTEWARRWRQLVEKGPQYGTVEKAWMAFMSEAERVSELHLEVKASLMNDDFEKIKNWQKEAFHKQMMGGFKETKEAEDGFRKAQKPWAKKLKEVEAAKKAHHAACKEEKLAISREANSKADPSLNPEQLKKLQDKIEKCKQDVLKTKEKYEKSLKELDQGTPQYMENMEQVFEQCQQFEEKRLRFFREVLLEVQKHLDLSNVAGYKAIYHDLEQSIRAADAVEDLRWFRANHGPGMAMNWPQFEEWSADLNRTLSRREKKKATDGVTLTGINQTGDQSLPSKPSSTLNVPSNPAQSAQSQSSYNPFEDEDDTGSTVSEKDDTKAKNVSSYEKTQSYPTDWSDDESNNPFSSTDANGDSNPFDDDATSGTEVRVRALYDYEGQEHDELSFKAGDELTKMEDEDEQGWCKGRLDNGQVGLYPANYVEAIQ
UniProt P40425: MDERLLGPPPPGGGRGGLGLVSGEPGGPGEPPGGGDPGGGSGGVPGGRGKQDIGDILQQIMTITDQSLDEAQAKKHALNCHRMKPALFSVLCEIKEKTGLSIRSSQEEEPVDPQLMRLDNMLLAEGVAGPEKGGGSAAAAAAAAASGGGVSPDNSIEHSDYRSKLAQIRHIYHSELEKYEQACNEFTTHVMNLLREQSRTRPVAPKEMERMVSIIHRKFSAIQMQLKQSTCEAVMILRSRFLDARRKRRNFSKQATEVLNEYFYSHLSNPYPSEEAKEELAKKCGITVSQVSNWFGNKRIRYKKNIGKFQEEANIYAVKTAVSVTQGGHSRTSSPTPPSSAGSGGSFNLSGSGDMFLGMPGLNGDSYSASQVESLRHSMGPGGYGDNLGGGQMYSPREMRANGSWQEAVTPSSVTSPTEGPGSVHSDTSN
UniProt P49585: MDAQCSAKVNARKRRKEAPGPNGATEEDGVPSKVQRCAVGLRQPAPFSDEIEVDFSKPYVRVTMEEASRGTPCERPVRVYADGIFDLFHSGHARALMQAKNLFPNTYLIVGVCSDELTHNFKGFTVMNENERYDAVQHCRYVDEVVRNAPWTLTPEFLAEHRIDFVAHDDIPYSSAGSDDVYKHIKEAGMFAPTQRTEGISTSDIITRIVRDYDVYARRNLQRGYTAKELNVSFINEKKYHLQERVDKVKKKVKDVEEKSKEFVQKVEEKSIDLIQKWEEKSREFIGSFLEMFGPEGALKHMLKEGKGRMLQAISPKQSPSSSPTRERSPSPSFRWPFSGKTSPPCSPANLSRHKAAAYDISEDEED
UniProt P30086: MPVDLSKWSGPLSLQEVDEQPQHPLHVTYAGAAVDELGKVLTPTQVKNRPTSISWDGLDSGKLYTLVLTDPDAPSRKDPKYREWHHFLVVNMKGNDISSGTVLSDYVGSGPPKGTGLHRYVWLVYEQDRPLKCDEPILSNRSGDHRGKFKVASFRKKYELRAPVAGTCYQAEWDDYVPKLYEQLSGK
UniProt P47712: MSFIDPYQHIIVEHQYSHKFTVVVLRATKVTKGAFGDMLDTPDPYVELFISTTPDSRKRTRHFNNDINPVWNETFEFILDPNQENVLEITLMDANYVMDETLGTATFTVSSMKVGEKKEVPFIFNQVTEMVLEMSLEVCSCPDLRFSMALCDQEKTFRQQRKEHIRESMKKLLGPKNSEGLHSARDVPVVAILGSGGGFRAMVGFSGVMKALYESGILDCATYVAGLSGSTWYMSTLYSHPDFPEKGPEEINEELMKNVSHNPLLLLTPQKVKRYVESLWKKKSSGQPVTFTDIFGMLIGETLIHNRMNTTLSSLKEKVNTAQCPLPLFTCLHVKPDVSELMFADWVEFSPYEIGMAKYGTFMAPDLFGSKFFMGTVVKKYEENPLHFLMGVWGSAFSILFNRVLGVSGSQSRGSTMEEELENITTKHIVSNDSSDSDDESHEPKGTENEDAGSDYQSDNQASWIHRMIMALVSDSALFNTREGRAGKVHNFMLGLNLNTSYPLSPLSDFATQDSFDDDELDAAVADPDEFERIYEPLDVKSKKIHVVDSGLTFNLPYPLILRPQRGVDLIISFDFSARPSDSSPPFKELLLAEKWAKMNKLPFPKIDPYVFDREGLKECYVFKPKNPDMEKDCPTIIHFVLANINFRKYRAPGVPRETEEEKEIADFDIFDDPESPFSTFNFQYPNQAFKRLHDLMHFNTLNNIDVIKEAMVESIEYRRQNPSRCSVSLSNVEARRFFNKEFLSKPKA
UniProt Q8ND30: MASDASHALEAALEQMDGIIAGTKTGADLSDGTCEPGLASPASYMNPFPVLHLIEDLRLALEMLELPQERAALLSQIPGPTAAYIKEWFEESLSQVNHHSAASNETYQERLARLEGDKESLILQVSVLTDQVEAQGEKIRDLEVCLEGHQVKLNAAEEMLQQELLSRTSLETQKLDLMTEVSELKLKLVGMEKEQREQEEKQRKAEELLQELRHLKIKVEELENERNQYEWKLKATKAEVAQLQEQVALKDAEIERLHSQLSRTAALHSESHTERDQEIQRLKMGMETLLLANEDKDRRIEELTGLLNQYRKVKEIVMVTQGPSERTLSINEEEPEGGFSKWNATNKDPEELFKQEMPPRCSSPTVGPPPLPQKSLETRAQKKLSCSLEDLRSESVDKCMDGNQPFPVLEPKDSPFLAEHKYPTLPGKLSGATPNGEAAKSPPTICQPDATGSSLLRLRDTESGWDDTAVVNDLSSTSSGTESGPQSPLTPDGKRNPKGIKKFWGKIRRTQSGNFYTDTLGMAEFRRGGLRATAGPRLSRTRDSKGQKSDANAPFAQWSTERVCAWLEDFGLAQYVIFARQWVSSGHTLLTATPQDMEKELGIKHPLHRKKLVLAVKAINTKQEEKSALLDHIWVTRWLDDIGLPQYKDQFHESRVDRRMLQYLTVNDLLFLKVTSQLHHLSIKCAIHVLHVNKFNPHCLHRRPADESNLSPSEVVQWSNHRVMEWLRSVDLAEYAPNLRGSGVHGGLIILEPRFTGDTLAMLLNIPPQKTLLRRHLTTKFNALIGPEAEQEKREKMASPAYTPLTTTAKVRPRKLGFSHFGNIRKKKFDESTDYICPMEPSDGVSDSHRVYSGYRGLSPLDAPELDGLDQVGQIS
UniProt Q13427: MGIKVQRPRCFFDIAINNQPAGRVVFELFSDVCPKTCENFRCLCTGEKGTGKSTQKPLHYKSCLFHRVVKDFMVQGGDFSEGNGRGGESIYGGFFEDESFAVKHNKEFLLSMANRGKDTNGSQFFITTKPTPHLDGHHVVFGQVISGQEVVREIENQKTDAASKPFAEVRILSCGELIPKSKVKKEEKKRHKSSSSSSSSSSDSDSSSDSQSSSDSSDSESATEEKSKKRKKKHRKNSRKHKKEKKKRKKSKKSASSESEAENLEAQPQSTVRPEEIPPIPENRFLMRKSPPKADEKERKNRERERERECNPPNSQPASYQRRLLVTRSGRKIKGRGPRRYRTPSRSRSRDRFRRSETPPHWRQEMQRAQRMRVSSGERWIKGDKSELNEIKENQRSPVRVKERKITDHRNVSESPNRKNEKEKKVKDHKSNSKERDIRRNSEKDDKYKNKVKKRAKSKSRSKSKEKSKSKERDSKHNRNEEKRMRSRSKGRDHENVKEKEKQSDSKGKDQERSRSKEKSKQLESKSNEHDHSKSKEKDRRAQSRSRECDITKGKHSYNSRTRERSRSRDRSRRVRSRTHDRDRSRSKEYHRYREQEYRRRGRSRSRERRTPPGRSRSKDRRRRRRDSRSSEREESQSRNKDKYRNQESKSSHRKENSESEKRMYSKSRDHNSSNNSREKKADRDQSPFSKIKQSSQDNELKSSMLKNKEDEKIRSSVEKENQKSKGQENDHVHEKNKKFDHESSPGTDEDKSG
UniProt O95685: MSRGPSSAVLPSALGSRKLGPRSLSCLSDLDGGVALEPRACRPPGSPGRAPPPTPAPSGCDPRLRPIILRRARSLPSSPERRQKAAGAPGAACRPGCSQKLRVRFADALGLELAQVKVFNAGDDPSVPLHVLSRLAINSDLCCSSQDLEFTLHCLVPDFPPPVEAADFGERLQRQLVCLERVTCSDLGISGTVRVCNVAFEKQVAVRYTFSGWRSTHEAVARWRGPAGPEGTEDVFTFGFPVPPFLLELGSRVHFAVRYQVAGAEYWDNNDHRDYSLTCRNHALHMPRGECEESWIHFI

compound: CC[C@@H](C)Nc1cc(C(=O)N[C@H]2C[C@H]3CC[C@@H](C2)N3c2ccc(C(=O)C3CC3)cn2)c(C)cc1C(N)=O [XL888]; assay: phosphopeptide melting temperature shift (XL888 minus DMSO); higher = stabilised by drug treatment; conditions: 100 µM; treatment time 2 h; layout: intact cells; SK-Mel 28
Experimental: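 Phospho-TPP in intact SK-Mel 28 cells treated with 100 uM XL888 or DMSO for 2 h, heated at 10 temperatures (37-67 C) for 3 min, soluble fraction TMT10plex-labelled and TiO2 phospho-enriched. Melting curves were fitted per phosphopeptide; the value is the melting point difference (drug minus vehicle) in each of two biological replicates.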

| Target | phosphopeptide melting temperature shift |
| --- | --- |
| NOC2L phosphosite_673 (phosphosite position: 673) (UniProt Q9Y3T9) | 4.23 °C |
| NOL12 phosphosite_139 (phosphosite position: 139) (UniProt Q9UGY1) | -1.43 °C |
| NOL12 phosphosite_140 (phosphosite position: 140) (UniProt Q9UGY1) | -1.43 °C |
| NOP58 phosphosite_502 (phosphosite position: 502) (UniProt Q9Y2X3) | -3.27 °C |
| NOTCH2 phosphosite_1845 (phosphosite position: 1845) (UniProt Q04721) | 4.18 °C |
| NPM1 phosphosite_88 (phosphosite position: 88) (UniProt P06748) | -4.34 °C |
| NRBP2 phosphosite_22 (phosphosite position: 22) (UniProt Q9NSY0) | 3.05 ± 0.67 °C |
| NSUN2 phosphosite_456 (phosphosite position: 456) (UniProt Q08J23) | 0.0738 °C |
| NUCKS1 phosphosite_113 (phosphosite position: 113) (UniProt Q9H1E3) | -4.9 °C |
| NUFIP2 phosphosite_212 (phosphosite position: 212) (UniProt Q7Z417) | 1.44 ± 1.3 °C |
| NUFIP2 phosphosite_629 (phosphosite position: 629) (UniProt Q7Z417) | 1.56 ± 0.61 °C |
| NUFIP2 phosphosite_652 (phosphosite position: 652) (UniProt Q7Z417) | -0.864 °C |
| NUP50 phosphosite_330 (phosphosite position: 330) (UniProt Q9UKX7) | 0.169 °C |
| NUP88 phosphosite_517 (phosphosite position: 517) (UniProt Q99567) | -0.59 °C |
| NUP160 phosphosite_1157 (phosphosite position: 1157) (UniProt Q12769) | 0.979 ± 1 °C |
| OSBP phosphosite_351 (phosphosite position: 351) (UniProt P22059) | -1.15 ± 0.2 °C |
| OSBP phosphosite_379 (phosphosite position: 379) (UniProt P22059) | 1.57 °C |
| OSBP phosphosite_382 (phosphosite position: 382) (UniProt P22059) | 1.57 °C |
| OSBP phosphosite_385 (phosphosite position: 385) (UniProt P22059) | 1.1 °C |
| OSBPL11 phosphosite_189 (phosphosite position: 189) (UniProt Q9BXB4) | 0.754 °C |
| OSTF1 phosphosite_213 (phosphosite position: 213) (UniProt Q92882) | -0.289 ± 2.1 °C |
| OTUB1 phosphosite_16 (phosphosite position: 16) (UniProt Q96FW1) | 1.06 °C |
| PACSIN2 phosphosite_311 (phosphosite position: 311) (UniProt Q9UNF0) | 1.81 °C |
| PACSIN2 phosphosite_313 (phosphosite position: 313) (UniProt Q9UNF0) | 4.57 °C |

Two entries drawn at random from those above, as already listed:

| Target | phosphopeptide melting temperature shift |
| --- | --- |
| OSBP phosphosite_379 (phosphosite position: 379) (UniProt P22059) | 1.57 °C |
| NUP160 phosphosite_1157 (phosphosite position: 1157) (UniProt Q12769) | 0.979 ± 1 °C |

Following part:

| Target | phosphopeptide melting temperature shift |
| --- | --- |
| PACSIN2 phosphosite_372 (phosphosite position: 372) (UniProt Q9UNF0) | 1.87 ± 0.31 °C |
| PACSIN2 phosphosite_375 (phosphosite position: 375) (UniProt Q9UNF0) | 0.999 °C |
| PACSIN2 phosphosite_387 (phosphosite position: 387) (UniProt Q9UNF0) | -0.497 °C |
| PAK2 phosphosite_141 (phosphosite position: 141) (UniProt Q13177) | 0.989 ± 0.6 °C |
| PAK2 phosphosite_169 (phosphosite position: 169) (UniProt Q13177) | 0.358 ± 1.4 °C |
| PAK4 phosphosite_181 (phosphosite position: 181) (UniProt O96013) | -0.749 °C |
| PARP4 phosphosite_1335 (phosphosite position: 1335) (UniProt Q9UKK3) | 0.555 °C |
| PBX2 phosphosite_330 (phosphosite position: 330) (UniProt P40425) | -0.91 °C |
| PCIF1 phosphosite_19 (phosphosite position: 19) (UniProt Q9H4Z3) | 0.355 °C |
| PCTK3 phosphosite_87 (phosphosite position: 87) (UniProt Q07002) | 0.411 °C |
| PCYT1A phosphosite_315 (phosphosite position: 315) (UniProt P49585) | -0.74 °C |
| PCYT1A phosphosite_319 (phosphosite position: 319) (UniProt P49585) | 0.639 °C |
| PDLIM5 phosphosite_228 (phosphosite position: 228) (UniProt Q96HC4) | 0.542 °C |
| PEBP1 phosphosite_52 (phosphosite position: 52) (UniProt P30086) | 2.1 °C |
| PFKFB2 phosphosite_466 (phosphosite position: 466) (UniProt O60825) | 0.91 °C |
| PFKP phosphosite_386 (phosphosite position: 386) (UniProt Q01813) | 0.348 °C |
| PGM3 phosphosite_64 (phosphosite position: 64) (UniProt O95394) | 1.15 ± 0.43 °C |
| PI4K2A phosphosite_47 (phosphosite position: 47) (UniProt Q9BTU6) | 2.41 °C |
| PIK3CD phosphosite_1039 (phosphosite position: 1039) (UniProt O00329) | -0.422 °C |
| PIK3R4 phosphosite_813 (phosphosite position: 813) (UniProt Q99570) | 2.77 °C |
| PLA2G4A phosphosite_434 (phosphosite position: 434) (UniProt P47712) | 0.956 ± 0.28 °C |
| PLA2G4A phosphosite_435 (phosphosite position: 435) (UniProt P47712) | 0.988 ± 0.33 °C |
| PLA2G4A phosphosite_437 (phosphosite position: 437) (UniProt P47712) | 0.555 ± 0.4 °C |
| PLEKHF1 phosphosite_227 (phosphosite position: 227) (UniProt Q96S99) | 3.72 °C |

| Target | phosphopeptide melting temperature shift |
| --- | --- |
| PLEKHF2 phosphosite_16 (phosphosite position: 16) (UniProt Q9H8W4) | 0.94 °C |
| PLEKHF2 phosphosite_226 (phosphosite position: 226) (UniProt Q9H8W4) | 0.451 ± 0.0062 °C |
| POLR1A phosphosite_1429 (phosphosite position: 1429) (UniProt O95602) | -0.57 °C |
| PPFIBP2 phosphosite_329 (phosphosite position: 329) (UniProt Q8ND30) | 4.05 °C |
| PPFIBP2 phosphosite_363 (phosphosite position: 363) (UniProt Q8ND30) | 3.62 °C |
| PPFIBP2 phosphosite_512 (phosphosite position: 512) (UniProt Q8ND30) | 0.12 ± 0.034 °C |
| PPID phosphosite_198 (phosphosite position: 198) (UniProt Q08752) | 2.11 °C |
| PPIG phosphosite_687 (phosphosite position: 687) (UniProt Q13427) | 3.24 ± 0.36 °C |
| PPIG phosphosite_744 (phosphosite position: 744) (UniProt Q13427) | 2.07 ± 1.5 °C |
| PPIG phosphosite_745 (phosphosite position: 745) (UniProt Q13427) | 0.124 ± 1.3 °C |
| PPIG phosphosite_748 (phosphosite position: 748) (UniProt Q13427) | 0.124 ± 1.3 °C |
| PPIG phosphosite_753 (phosphosite position: 753) (UniProt Q13427) | -1.85 °C |
| PPIL4 phosphosite_178 (phosphosite position: 178) (UniProt Q8WUA2) | 0.583 ± 0.17 °C |
| PPP1R3D phosphosite_46 (phosphosite position: 46) (UniProt O95685) | 0.311 °C |
| PPP1R7 phosphosite_24 (phosphosite position: 24) (UniProt Q15435) | 0.581 ± 1.1 °C |
| PPP1R7 phosphosite_47 (phosphosite position: 47) (UniProt Q15435) | 1.77 ± 0.3 °C |
| PPP1R10 phosphosite_545 (phosphosite position: 545) (UniProt Q96QC0) | -0.594 °C |
| PRCC phosphosite_157 (phosphosite position: 157) (UniProt Q92733) | 6.31 °C |
| PRKAB1 phosphosite_108 (phosphosite position: 108) (UniProt Q9Y478) | -1.36 ± 1.1 °C |
| PRKAB2 phosphosite_39 (phosphosite position: 39) (UniProt O43741) | 2.27 °C |
| PRKAB2 phosphosite_108 (phosphosite position: 108) (UniProt O43741) | -0.325 ± 0.86 °C |
| PRKAR1A phosphosite_77 (phosphosite position: 77) (UniProt P10644) | 0.87 ± 1.3 °C |
| PRKAR1B phosphosite_83 (phosphosite position: 83) (UniProt P31321) | 1.63 ± 0.78 °C |

A second format for part of the listing above.
Target	phosphopeptide melting temperature shift
PCTK3 phosphosite_87 (phosphosite position: 87) (UniProt Q07002)	0.411 °C
PCYT1A phosphosite_315 (phosphosite position: 315) (UniProt P49585)	-0.74 °C
